According to PubChem BioAssay AID328 (DTP/NCI, 2004):
The list shows only some results of the screen, not a fair sample: it is rich in T/C values a quarter to a half above the control, in often repeated tests (any T/C) and in doses without a T/C. Further doses and runs are listed elsewhere. T/C: endpoint of the treated group in % of that of the vehicle group. Some doses have a count of surviving animals in place of a T/C: the source files T/C as zero there, which appears to mark a toxic dose or a test without result, not a measured value. Some survivor counts are full or nearly so, which does not show that the dose was tolerated: the source hardly ever lists a survival T/C far under the control, and the zero likely stands for such cases as well. Counts of survivors are from the toxicity check (mostly the fifth day) where no day follows; animals may have died later. Schedule codes are those of the source, read here as Q, the interval in days (D) or hours (H), X, the number of doses. For survival time, this PubChem deposit counts one and a half times the control or more as active, and values a quarter to a half above the control carry no call in these data; other NCI protocols may use other cut-offs. Some T/C values carry the count of animals alive at the toxicity check (mostly the fifth day); where none is given, no animal had died by that day. Some doses were run more than once; their values stand side by side, smallest first. Brackets with × give the number of equal values in this list.

Test system: BDF1 mice, P388 leukemia ip, median survival T/C
Assay: NCI In Vivo Anticancer Drug Screen. Data for tumor model P388 Leukemia (intraperitoneal) in B6D2F1 (BDF1) mice
Conditions: T/C endpoint: median survival time, higher T/C = longer survival
Procedure, shortened: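 T/C = treated-group survival ÷ vehicle-control survival; tumour transplanted into mice before dosing.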

For `CC(CN1CC(=O)NC(=O)C1)N1CC(=O)NC(=O)C1` (centres undefined), the T/C (dose: 7.5 mg/kg/injection, schedule: Q01DX010 (oral), vehicle: saline with Tween-80) was 127 % of control, the T/C (dose: 12.5 mg/kg/injection, schedule: Q01DX005 (ip), vehicle: Klucel (hydroxypropylcellulose) (HPC), evaluated on day 30) was 108, 110, 114, 119, 120, 121, 124, 126, 128, 134, 138, 139 (2×), 142 (2×), 148, 149 (2×), 151 (2×), 152, 155 (3×), 156, 157, 158, 160, 166, 169, 272 % of control and the T/C (dose: 12.5 mg/kg/injection, schedule: Q01DX005 (ip), vehicle: Klucel (hydroxypropylcellulose) (HPC), evaluated on day 35) was 113 [2 of 3 alive] and 155 % of control. The T/C (dose: 12.5 mg/kg/injection, schedule: Q01DX009 (ip), vehicle: Klucel (hydroxypropylcellulose) (HPC), evaluated on day 30) was 102, 111, 118, 119 [5 of 6 alive], 128 [2 of 3 alive], 130, 131, 132, 134, 138, 140, 141, 144 (2×), 145, 147, 149, 151 (2×), 152 (2×), 154, 156, 157, 159, 160, 163, 165 (2×), 178, 185, 189, 194, 221, 263 % of control, the T/C (dose: 12.5 mg/kg/injection, schedule: Q01DX009 (ip), vehicle: Klucel (hydroxypropylcellulose) (HPC), evaluated on day 35) was 149 % of control and the T/C (dose: 25.0 mg/kg/injection, schedule: Q01DX005 (ip), vehicle: Klucel (hydroxypropylcellulose) (HPC), evaluated on day 30) was 116, 117, 125, 127, 128 (2×), 129, 131, 133, 137 (2×), 138, 139 (3×), 145, 150, 155, 156 (2×), 158 [5 of 6 alive], 159, 160 (4×), 166, 168, 171 (2×), 174 % of control. The T/C (dose: 25.0 mg/kg/injection, schedule: Q01DX005 (ip), vehicle: Klucel (hydroxypropylcellulose) (HPC), evaluated on day 35) was 147 and 158 % of control, the T/C (dose: 25.0 mg/kg/injection, schedule: Q01DX009 (ip), vehicle: Klucel (hydroxypropylcellulose) (HPC), evaluated on day 30) was 94, 105 [5 of 6 alive], 118, 122, 135, 143, 144, 147, 149, 161, 167, 169 (3×), 171 (3×), 172, 176 (2×), 177, 179, 182, 183 [2 of 3 alive], 185, 188 (2×), 191, 196 (3×), 203, 226, 241 % of control and the T/C (dose: 25.0 mg/kg/injection, schedule: Q01DX009 (ip), vehicle: Klucel (hydroxypropylcellulose) (HPC), evaluated on day 35) was 181 % of control. The survivor count (dose: 25.0 mg/kg/injection, schedule: Q01DX009 (ip), vehicle: Klucel (hydroxypropylcellulose) (HPC)) was 3 of 3, the T/C (dose: 25.0 mg/kg/injection, schedule: Q01DX009 (ip), vehicle: steroid suspending solution) was 135 % of control and the T/C (dose: 30.0 mg/kg/injection, schedule: Q01DX010 (ip), vehicle: saline) was 133 % of control. For the same compound, the survivor count (dose: 30.0 mg/kg/injection, schedule: Q01DX010 (oral), vehicle: saline with Tween-80) was 6 of 6, the T/C (dose: 37.5 mg/kg/injection, schedule: Q04DX002 (ip), vehicle: Klucel (hydroxypropylcellulose) (HPC), evaluated on day 30) was 90, 98, 102, 103 (2×), 104 (2×), 105, 107, 109, 110 (2×), 112, 114, 115 (2×), 116, 117, 119 (4×), 120 (2×), 121, 131, 144, 189 % of control and the T/C (dose: 37.5 mg/kg/injection, schedule: Q04DX002 (ip), vehicle: Klucel (hydroxypropylcellulose) (HPC), evaluated on day 35) was 102 % of control [5 of 6 alive]. For the same compound, the survivor count (dose: 37.5 mg/kg/injection, schedule: Q04DX002 (ip), vehicle: Klucel (hydroxypropylcellulose) (HPC)) was 3 of 3, the T/C (dose: 37.5 mg/kg/injection, schedule: Q04DX003 (ip), vehicle: Klucel (hydroxypropylcellulose) (HPC), evaluated on day 30) was 86, 100, 104 (2×), 108 (2×), 109, 112 (2×), 113 (2×), 116, 117, 118, 119, 120 (5×), 123 (3×), 126 (2×), 129, 130, 131, 135, 137, 255 % of control and the T/C (dose: 37.5 mg/kg/injection, schedule: Q04DX003 (ip), vehicle: Klucel (hydroxypropylcellulose) (HPC), evaluated on day 35) was 119 % of control. For the same compound, the T/C (dose: 50.0 mg/kg/injection, schedule: Q01DX001 (ip), vehicle: Klucel (hydroxypropylcellulose) (HPC)) was 92, 100, 104, 107, 108 (4×), 109 (4×), 112, 113 (2×), 114 (2×), 115, 117, 118, 119, 120, 121 (2×), 125, 126, 129, 147 (2×), 158 % of control, the T/C (dose: 50.0 mg/kg/injection, schedule: Q01DX005 (ip), vehicle: Klucel (hydroxypropylcellulose) (HPC), evaluated on day 30) was 116, 126, 133 (2×), 136, 137, 139, 140, 141 (3×), 142, 142 [5 of 6 alive], 148 (3×), 149, 157, 158, 161, 162 (3×), 168, 169 (2×), 174, 178, 189, 191, 197 % of control and the T/C (dose: 50.0 mg/kg/injection, schedule: Q01DX005 (ip), vehicle: Klucel (hydroxypropylcellulose) (HPC), evaluated on day 35) was 121 and 177 % of control. For the same compound, the T/C (dose: 50.0 mg/kg/injection, schedule: Q01DX009 (ip), vehicle: Klucel (hydroxypropylcellulose) (HPC), evaluated on day 30) was 88, 90, 92, 110, 113, 113 [5 of 6 alive], 114 [5 of 6 alive], 133, 150, 153 [2 of 3 alive], 161, 165, 173, 176, 177, 178, 179 (2×), 180, 181, 182, 185 (2×), 187, 188, 189, 200, 202, 203, 206, 207, 214 (2×), 218, 231 % of control, the T/C (dose: 50.0 mg/kg/injection, schedule: Q01DX009 (ip), vehicle: Klucel (hydroxypropylcellulose) (HPC), evaluated on day 35) was 103 % of control [5 of 6 alive] and the T/C (dose: 50.0 mg/kg/injection, schedule: Q03HX024 (ip), vehicle: steroid suspending solution) was 135 % of control. The T/C (dose: 50.0 mg/kg/injection, schedule: Q04DX002 (ip), vehicle: Klucel (hydroxypropylcellulose) (HPC)) was 128 % of control, the T/C (dose: 60.0 mg/kg/injection, schedule: Q01DX010 (ip), vehicle: saline) was 128 % of control and the T/C (dose: 75.0 mg/kg/injection, schedule: Q04DX002 (ip), vehicle: Klucel (hydroxypropylcellulose) (HPC), evaluated on day 30) was 91, 102, 103, 104, 106, 107, 108 (2×), 115, 116, 118, 119 (4×), 120, 121, 122 (2×), 125, 126, 128 (2×), 129, 131 (2×), 135, 137 % of control. For the same compound, the T/C (dose: 75.0 mg/kg/injection, schedule: Q04DX002 (ip), vehicle: Klucel (hydroxypropylcellulose) (HPC), evaluated on day 35) was 109 % of control, the survivor count (dose: 75.0 mg/kg/injection, schedule: Q04DX002 (ip), vehicle: Klucel (hydroxypropylcellulose) (HPC)) was 3 of 3 and the T/C (dose: 75.0 mg/kg/injection, schedule: Q04DX003 (ip), vehicle: Klucel (hydroxypropylcellulose) (HPC), evaluated on day 30) was 95, 104 (2×), 115 (2×), 116 (2×), 117, 120, 121 (4×), 122, 123 (2×), 125, 126, 128, 129 (2×), 130, 131, 133, 137, 145, 147, 148 (2×), 157 % of control. For the same compound, the T/C (dose: 75.0 mg/kg/injection, schedule: Q04DX003 (ip), vehicle: Klucel (hydroxypropylcellulose) (HPC), evaluated on day 35) was 111 % of control, the survivor count (dose: 75.0 mg/kg/injection, schedule: Q04DX003 (ip), vehicle: Klucel (hydroxypropylcellulose) (HPC)) was 5 of 6 and the T/C (dose: 86.4 mg/kg/injection, schedule: Q04DX003 (ip), vehicle: Klucel (hydroxypropylcellulose) (HPC)) was 135 % of control. The T/C (dose: 100.0 mg/kg/injection, schedule: Q01DX001 (ip), vehicle: Klucel (hydroxypropylcellulose) (HPC)) was 95, 104, 108, 109, 110 (4×), 111 (3×), 111 [5 of 6 alive], 113, 114, 115 (5×), 117, 118, 119, 120 (2×), 123, 127, 128, 129 (2×), 140 % of control.
